# Assay results taken from the supplement of paper PMC4604168 (melanoma cell lines).
# This is one part of the list. Single values are uncertain, as repeats are few or missing.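 Imaging used 1,536-well plates; nuclei positive for cleaved PARP by antibody were divided by total DNA-stained nuclei to yield the apoptosis fraction. Doses for screening kept most cells viable, and cell lines differ markedly in resting and induced cleaved-PARP levels.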
# System: COLO792
# Assay: cleaved PARP positive nuclei fraction relative to DMSO control; melanoma cells; higher = more apoptosis
# Details: library dose: low library concentration; 72 h
row,Structure (SMILES),cleaved PARP positive nuclei fraction [%]
1,"O=C(CCCCCCC(=O)Nc1ccccc1)NO [vorinostat] + COc1ccc2c(c1)CCC1C2CCC2(C)C(NCCCCCCN3C(=O)C=CC3=O)CCC12 [U73122] (first compound 0.08 µM, partner dose 0.4 µM)",57.4
2,"Cn1nnc2c(C(N)=O)ncn2c1=O [temozolomide] + COc1ccc(COc2ccc(Cc3cnc(N)nc3N)cc2OC)cc1 [GW2580] (first compound 2 µM, partner dose 1 µM)",147
3,"OCCn1cc(-c2cnc3nnn(Cc4ccc5ncccc5c4)c3n2)cn1 + COc1ccc(-c2ccc3c(N4CCOCC4)nc(N4C[C@@H](C)O[C@@H](C)C4)nc3n2)cc1CO [KU0063794] (first compound 1 µM, partner dose 0.02 µM)",135
4,"Cc1ccc(NC(=O)c2cccc(N(C)C)c2)cc1NC(=O)c1ccc(O)cc1 + Cn1cc(/C=C2\C(=O)Nc3cccnc32)c2ccccc21 [GW441756] (first compound 2 µM, partner dose 0.4 µM)",174
5,"Cc1ccc(NC(=O)c2cccc(N(C)C)c2)cc1NC(=O)c1ccc(O)cc1 + CCCCCCCCCCCC1=C(O)C(=O)C=C(O)C1=O [Embelin] (first compound 2 µM, partner dose 1.2 µM)",106
6,"Cn1cncc1[C@@](N)(c1ccc(Cl)cc1)c1ccc2c(c1)c(-c1cccc(Cl)c1)cc(=O)n2C [tipifarnib] + Cc1cc([N+](=O)[O-])ccc1NS(=O)(=O)c1cc(Cl)ccc1Cl [FH535] (first compound 0.01 µM, partner dose 1 µM)",74.1
7,"Cn1c(Nc2ccc(C(F)(F)F)cc2)nc2cc(Oc3ccnc(-c4ncc(C(F)(F)F)[nH]4)c3)ccc21 + COc1ccc2c(c1)CCC1C2CCC2(C)C(NCCCCCCN3C(=O)C=CC3=O)CCC12 [U73122] (first compound 0.08 µM, partner dose 0.4 µM)",550
8,"Cn1cncc1[C@@](N)(c1ccc(Cl)cc1)c1ccc2c(c1)c(-c1cccc(Cl)c1)cc(=O)n2C [tipifarnib] + Oc1cc(-c2nc(-c3ccccc3)[nH]c2-c2ccncc2)ccc1Cl [L779450] (first compound 0.01 µM, partner dose 0.2 µM)",69.4
9,"OCCn1cc(-c2cnc3nnn(Cc4ccc5ncccc5c4)c3n2)cn1 + O=C(O)C(=O)Nc1sc2c(c1C(=O)O)CCNC2 [TCS401] (first compound 1 µM, partner dose 1.66667 µM)",163
10,"C=CCn1c(=O)c2cnc(Nc3ccc(N4CCN(C)CC4)cc3)nc2n1-c1cccc(C(C)(C)O)n1 + Oc1nc(-c2ccc(C(F)(F)F)cc2)nc2c1CSCC2 [XAV939] (first compound 0.02 µM, partner dose 2 µM)",215
11,"Nc1cccc2c1CN(C1CCC(=O)NC1=O)C2=O (centres undefined) [lenalidomide] + CCCCCCCCCCCC1=C(O)C(=O)C=C(O)C1=O [Embelin] (first compound 1 µM, partner dose 1.2 µM)",125
12,"C[C@@H]1CCN(C(=O)CC#N)C[C@@H]1N(C)c1ncnc2[nH]ccc12 + Oc1cc(-c2nc(-c3ccccc3)[nH]c2-c2ccncc2)ccc1Cl [L779450] (first compound 1 µM, partner dose 0.2 µM)",91.1
13,"Cc1cc(N2CCOCC2)cc2[nH]c(-c3c(NC[C@@H](O)c4cccc(Cl)c4)cc[nH]c3=O)nc12 + Cc1cc([N+](=O)[O-])ccc1NS(=O)(=O)c1cc(Cl)ccc1Cl [FH535] (first compound 0.2 µM, partner dose 1 µM)",60.9
14,"C=CCn1c(=O)c2cnc(Nc3ccc(N4CCN(C)CC4)cc3)nc2n1-c1cccc(C(C)(C)O)n1 + O=C1NC(=O)/C(=C/c2ccc(-c3ccc(F)cc3O)o2)S1 [AS252424] (first compound 0.02 µM, partner dose 1 µM)",102
15,"Cc1ccc(NC(=O)c2cccc(N(C)C)c2)cc1NC(=O)c1ccc(O)cc1 + N#Cc1c(O)c2c(-c3ccc(-c4ccccc4O)cc3)csc2[nH]c1=O [A769662] (first compound 2 µM, partner dose 2 µM)",119
16,"Cn1cncc1[C@@](N)(c1ccc(Cl)cc1)c1ccc2c(c1)c(-c1cccc(Cl)c1)cc(=O)n2C [tipifarnib] + CCN(CC)CCCCNc1ncc2cc(-c3cc(OC)cc(OC)c3)c(NC(=O)NC(C)(C)C)nc2n1 [PD173074] (first compound 0.01 µM, partner dose 0.1 µM)",46.2
17,"O=C(CCCCCCC(=O)Nc1ccccc1)NO [vorinostat] + CCCCCCCCCCCC1=C(O)C(=O)C=C(O)C1=O [Embelin] (first compound 0.08 µM, partner dose 1.2 µM)",87

row,Structure (SMILES),cleaved PARP positive nuclei fraction [%]
1,"Cn1nnc2c(C(N)=O)ncn2c1=O [temozolomide] + Cn1cc(/C=C2\C(=O)Nc3cccnc32)c2ccccc21 [GW441756] (first compound 2 µM, partner dose 0.4 µM)",131
2,"Nc1cccc2c1CN(C1CCC(=O)NC1=O)C2=O (centres undefined) [lenalidomide] + COc1cc2ncnc(Nc3ccc(Oc4ccccc4)cc3)c2cc1OC [SrcI1] (first compound 1 µM, partner dose 2 µM)",65.5
3,"COc1cc(Nc2ncc(F)c(Nc3ccc4c(n3)NC(=O)C(C)(C)O4)n2)cc(OC)c1OC [Tamatinib] + CCc1ccc(CCOc2ccc(CC3SC(=O)NC3=O)cc2)nc1 [pioglitazone] (first compound 0.4 µM, partner dose 2 µM)",236
4,"Cc1nc(Nc2ncc(C(=O)Nc3c(C)cccc3Cl)s2)cc(N2CCN(CCO)CC2)n1 [dasatanib] + COc1cc(N2CCC(N3CCN(C)CC3)CC2)ccc1Nc1ncc(Cl)c(Nc2ccccc2S(=O)(=O)C(C)C)n1 [NVP-TAE684] (first compound 0.004 µM, partner dose 0.08 µM)",189
5,"Cn1c(Nc2ccc(C(F)(F)F)cc2)nc2cc(Oc3ccnc(-c4ncc(C(F)(F)F)[nH]4)c3)ccc21 + Cc1cc([N+](=O)[O-])ccc1NS(=O)(=O)c1cc(Cl)ccc1Cl [FH535] (first compound 0.08 µM, partner dose 1 µM)",445
6,"O=C(CCCCCCC(=O)Nc1ccccc1)NO [vorinostat] + O=S(=O)(c1ccccc1)N(CC(F)(F)F)c1ccc(C(O)(C(F)(F)F)C(F)(F)F)cc1 [T0901317] (first compound 0.08 µM, partner dose 1.4 µM)",121
7,"CC(C)(C)c1cnc(CSc2cnc(NC(=O)C3CCNCC3)s2)o1 + CCc1ccc(CCOc2ccc(CC3SC(=O)NC3=O)cc2)nc1 [pioglitazone] (first compound 0.01 µM, partner dose 2 µM)",119
8,"COc1cc(Nc2ncc(F)c(Nc3ccc4c(n3)NC(=O)C(C)(C)O4)n2)cc(OC)c1OC [Tamatinib] + Cn1cc(/C=C2\C(=O)Nc3cccnc32)c2ccccc21 [GW441756] (first compound 0.4 µM, partner dose 0.4 µM)",364
9,"C#Cc1cccc(Nc2ncnc3cc(OCCOC)c(OCCOC)cc23)c1 [erlotinib] + N#Cc1c(O)c2c(-c3ccc(-c4ccccc4O)cc3)csc2[nH]c1=O [A769662] (first compound 0.8 µM, partner dose 2 µM)",265
10,"OCCn1cc(-c2cnc3nnn(Cc4ccc5ncccc5c4)c3n2)cn1 + COc1cc(N2CCC(N3CCN(C)CC3)CC2)ccc1Nc1ncc(Cl)c(Nc2ccccc2S(=O)(=O)C(C)C)n1 [NVP-TAE684] (first compound 1 µM, partner dose 0.08 µM)",122
11,"O=C(Nc1cccc(Cl)c1)Nc1ncc(CCNc2ncnc3ccsc23)s1 + COc1ccc(COc2ccc(Cc3cnc(N)nc3N)cc2OC)cc1 [GW2580] (first compound 0.0008 µM, partner dose 1 µM)",107
12,"Cc1nc(Nc2ncc(C(=O)Nc3c(C)cccc3Cl)s2)cc(N2CCN(CCO)CC2)n1 [dasatanib] + O=C1NC(=O)/C(=C/c2ccc(-c3ccc(F)cc3O)o2)S1 [AS252424] (first compound 0.004 µM, partner dose 1 µM)",87.1
13,"C[C@]1(c2nc3c(C(N)=O)cccc3[nH]2)CCCN1 [Veliparib] + Cc1cc([N+](=O)[O-])ccc1NS(=O)(=O)c1cc(Cl)ccc1Cl [FH535] (first compound 1.4 µM, partner dose 1 µM)",160
14,"C[C@@H]1CCN(C(=O)CC#N)C[C@@H]1N(C)c1ncnc2[nH]ccc12 + COc1cc2ncnc(Nc3ccc(Oc4ccccc4)cc3)c2cc1OC [SrcI1] (first compound 1 µM, partner dose 2 µM)",93.4
15,"CC1(C)NC(=O)N(c2ccc([N+](=O)[O-])c(C(F)(F)F)c2)C1=O [nilutamide] + c1cc(-c2cnn3cc(-c4ccc(OCCN5CCCCC5)cc4)cnc23)ccn1 [Dorsomorphin] (first compound 1 µM, partner dose 0.4 µM)",55.9
16,"C[C@@H]1CCN(C(=O)CC#N)C[C@@H]1N(C)c1ncnc2[nH]ccc12 + c1cc(-c2cnn3cc(-c4ccc(OCCN5CCCCC5)cc4)cnc23)ccn1 [Dorsomorphin] (first compound 1 µM, partner dose 0.4 µM)",45
17,"NC(=O)Nc1cc(-c2cccc(F)c2)sc1C(=O)N[C@H]1CCCNC1 + O=S(=O)(c1ccccc1)N(CC(F)(F)F)c1ccc(C(O)(C(F)(F)F)C(F)(F)F)cc1 [T0901317] (first compound 0.02 µM, partner dose 1.4 µM)",51.2

# Reprinted from the entries so far for reference:
row,Structure (SMILES),cleaved PARP positive nuclei fraction [%]
5,"Cn1c(Nc2ccc(C(F)(F)F)cc2)nc2cc(Oc3ccnc(-c4ncc(C(F)(F)F)[nH]4)c3)ccc21 + Cc1cc([N+](=O)[O-])ccc1NS(=O)(=O)c1cc(Cl)ccc1Cl [FH535] (first compound 0.08 µM, partner dose 1 µM)",445
6,"O=C(CCCCCCC(=O)Nc1ccccc1)NO [vorinostat] + O=S(=O)(c1ccccc1)N(CC(F)(F)F)c1ccc(C(O)(C(F)(F)F)C(F)(F)F)cc1 [T0901317] (first compound 0.08 µM, partner dose 1.4 µM)",121
